Data as given in PubChem BioAssay AID1259254 (NCATS, 2017)

Aim: 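Gene knock-downs that lead to re-replication, shown by excess G2 DNA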 (primary screen)
Cell system: human HCT116 colorectal cancer cells
Reagents: single siRNA against human genes
Duration: 3 days
Measured: 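Imaged Hoechst DNA stain sorts each cell into a cycle phase by DNA amount; per plate, G2 fraction set to 0% for non-targeting and 100% for GMNN siRNA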
Direction: G2 robust z-score and G2 cells, % of GMNN control: higher = more G2 cells, more excess DNA replication; raw share of cells in G2: higher = larger share of cells with G2 DNA content
Hit rule: 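An siRNA counts as active if its G2 robust z-score lies at least 5 MADs above the screen median; here such calls match roughly 38% of GMNN control or more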
In all, the deposit lists about 59,000 reagents; this is an unselected part. Over the whole deposit, about 1,550 (2.6%) were called active. 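G2 share is only a proxy for re-replication; each gene was hit by three separate siRNAs, and active genes were retested.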 Raw values vary from plate to plate and are shown uncorrected. A number with no mark means an inactive call. The numbers tell different reagents against one gene apart. Not given: the amount of reagent.

no.	gene knocked down	reagent	G2 robust z-score	G2 cells, % of GMNN control	raw share of cells in G2 (%)
1	LGALS16	1	3.75	29.3	13.7
2	LGALS16	2	-0.962	-3.8	1.74
3	LGALS16	3	0.375	5.6	5.02
4	POLR2D	1	0.543	6.79	6.15
5	POLR2D	2	3.22	25.7	16.9
6	POLR2D	3	0.84	8.88	6.33
7	RFC5	1	-0.885	-3.26	3.86
8	RFC5	2	1.53	13.8	9.93
9	RFC5	3	0.202	4.39	5.61
10	GTPBP4	1	2.2	18.5	13.8
11	GTPBP4	2	1.98	16.9	9.82
12	GTPBP4	3	1.01	10.1	7.32
13	TM9SF1	1	-0.885	-3.26	2.79
14	TM9SF1	2	0.42	5.92	8.81
15	TM9SF1	3	-1.23	-5.7	3.22
16	ZNF546	1	2.97	23.9	11.3
17	ZNF546	2	-0.961	-3.8	1.85
18	ZNF546	3	-0.442	-0.143	3.47
19	CD3G	1	-1.44	-7.18	2.4
20	CD3G	2	1.86	16	10.9
21	CD3G	3	-0.124	2.1	4.82
22	VSTM2A	1	0.0378	3.23	4.75
23	VSTM2A	2	0.0203	3.11	4.2
24	VSTM2A	3	1.06	10.4	6.51
25	ARK2N	1	0.581	7.06	6.19
26	ARK2N	2	-0.104	2.24	3.6
27	ARK2N	3	1.04	10.3	6.64
28	CNTROB	1	0.794	8.55	7.52
29	CNTROB	2	1.57	14	7.5
30	CNTROB	3	-1.13	-4.98	0.362
31	FAM86C1P	1	-0.211	1.48	5.09
32	FAM86C1P	2	-0.292	0.914	4.52
33	FAM86C1P	3	-0.7	-1.95	2.51
34	SYT7	1	0.46	6.2	5.59
35	SYT7	2	1.56	14	12.2
36	SYT7	3	0.142	3.96	5
37	PCDHGA4	1	1.07	10.5	11
38	PCDHGA4	2	0.176	4.21	5.95
39	PCDHGA4	3	-0.116	2.15	5.23
40	CYP2F1	1	0.269	4.86	5.77
41	CYP2F1	2	4.35	33.6	17.3
42	CYP2F1	3	1.33	12.3	9.36
43	UVRAG	1	0.86	9.01	9.13
44	UVRAG	2	-1.12	-4.93	1.94
45	UVRAG	3	0.125	3.85	4.71
46	RXFP4	1	0.652	7.55	7.58
47	RXFP4	2	-0.328	0.656	4.93
48	RXFP4	3	-0.528	-0.746	3.9
